Test results reported in article PMC4743010.
Changes are numbered by the printed parent chain. No constants are given. Whether binding was seen depends on the method and setting. Binding seen in cells or lysates may run through a third protein. Some results given as binding are weak or reduced against the parent protein; the word gives no strength. For some of these results: Where a sequence is shown, tags or fusion partners need not be part of it.

Sequences of proteins named here, by UniProt entry; tags and fusion partners are left off.
UniProt Q96Q15: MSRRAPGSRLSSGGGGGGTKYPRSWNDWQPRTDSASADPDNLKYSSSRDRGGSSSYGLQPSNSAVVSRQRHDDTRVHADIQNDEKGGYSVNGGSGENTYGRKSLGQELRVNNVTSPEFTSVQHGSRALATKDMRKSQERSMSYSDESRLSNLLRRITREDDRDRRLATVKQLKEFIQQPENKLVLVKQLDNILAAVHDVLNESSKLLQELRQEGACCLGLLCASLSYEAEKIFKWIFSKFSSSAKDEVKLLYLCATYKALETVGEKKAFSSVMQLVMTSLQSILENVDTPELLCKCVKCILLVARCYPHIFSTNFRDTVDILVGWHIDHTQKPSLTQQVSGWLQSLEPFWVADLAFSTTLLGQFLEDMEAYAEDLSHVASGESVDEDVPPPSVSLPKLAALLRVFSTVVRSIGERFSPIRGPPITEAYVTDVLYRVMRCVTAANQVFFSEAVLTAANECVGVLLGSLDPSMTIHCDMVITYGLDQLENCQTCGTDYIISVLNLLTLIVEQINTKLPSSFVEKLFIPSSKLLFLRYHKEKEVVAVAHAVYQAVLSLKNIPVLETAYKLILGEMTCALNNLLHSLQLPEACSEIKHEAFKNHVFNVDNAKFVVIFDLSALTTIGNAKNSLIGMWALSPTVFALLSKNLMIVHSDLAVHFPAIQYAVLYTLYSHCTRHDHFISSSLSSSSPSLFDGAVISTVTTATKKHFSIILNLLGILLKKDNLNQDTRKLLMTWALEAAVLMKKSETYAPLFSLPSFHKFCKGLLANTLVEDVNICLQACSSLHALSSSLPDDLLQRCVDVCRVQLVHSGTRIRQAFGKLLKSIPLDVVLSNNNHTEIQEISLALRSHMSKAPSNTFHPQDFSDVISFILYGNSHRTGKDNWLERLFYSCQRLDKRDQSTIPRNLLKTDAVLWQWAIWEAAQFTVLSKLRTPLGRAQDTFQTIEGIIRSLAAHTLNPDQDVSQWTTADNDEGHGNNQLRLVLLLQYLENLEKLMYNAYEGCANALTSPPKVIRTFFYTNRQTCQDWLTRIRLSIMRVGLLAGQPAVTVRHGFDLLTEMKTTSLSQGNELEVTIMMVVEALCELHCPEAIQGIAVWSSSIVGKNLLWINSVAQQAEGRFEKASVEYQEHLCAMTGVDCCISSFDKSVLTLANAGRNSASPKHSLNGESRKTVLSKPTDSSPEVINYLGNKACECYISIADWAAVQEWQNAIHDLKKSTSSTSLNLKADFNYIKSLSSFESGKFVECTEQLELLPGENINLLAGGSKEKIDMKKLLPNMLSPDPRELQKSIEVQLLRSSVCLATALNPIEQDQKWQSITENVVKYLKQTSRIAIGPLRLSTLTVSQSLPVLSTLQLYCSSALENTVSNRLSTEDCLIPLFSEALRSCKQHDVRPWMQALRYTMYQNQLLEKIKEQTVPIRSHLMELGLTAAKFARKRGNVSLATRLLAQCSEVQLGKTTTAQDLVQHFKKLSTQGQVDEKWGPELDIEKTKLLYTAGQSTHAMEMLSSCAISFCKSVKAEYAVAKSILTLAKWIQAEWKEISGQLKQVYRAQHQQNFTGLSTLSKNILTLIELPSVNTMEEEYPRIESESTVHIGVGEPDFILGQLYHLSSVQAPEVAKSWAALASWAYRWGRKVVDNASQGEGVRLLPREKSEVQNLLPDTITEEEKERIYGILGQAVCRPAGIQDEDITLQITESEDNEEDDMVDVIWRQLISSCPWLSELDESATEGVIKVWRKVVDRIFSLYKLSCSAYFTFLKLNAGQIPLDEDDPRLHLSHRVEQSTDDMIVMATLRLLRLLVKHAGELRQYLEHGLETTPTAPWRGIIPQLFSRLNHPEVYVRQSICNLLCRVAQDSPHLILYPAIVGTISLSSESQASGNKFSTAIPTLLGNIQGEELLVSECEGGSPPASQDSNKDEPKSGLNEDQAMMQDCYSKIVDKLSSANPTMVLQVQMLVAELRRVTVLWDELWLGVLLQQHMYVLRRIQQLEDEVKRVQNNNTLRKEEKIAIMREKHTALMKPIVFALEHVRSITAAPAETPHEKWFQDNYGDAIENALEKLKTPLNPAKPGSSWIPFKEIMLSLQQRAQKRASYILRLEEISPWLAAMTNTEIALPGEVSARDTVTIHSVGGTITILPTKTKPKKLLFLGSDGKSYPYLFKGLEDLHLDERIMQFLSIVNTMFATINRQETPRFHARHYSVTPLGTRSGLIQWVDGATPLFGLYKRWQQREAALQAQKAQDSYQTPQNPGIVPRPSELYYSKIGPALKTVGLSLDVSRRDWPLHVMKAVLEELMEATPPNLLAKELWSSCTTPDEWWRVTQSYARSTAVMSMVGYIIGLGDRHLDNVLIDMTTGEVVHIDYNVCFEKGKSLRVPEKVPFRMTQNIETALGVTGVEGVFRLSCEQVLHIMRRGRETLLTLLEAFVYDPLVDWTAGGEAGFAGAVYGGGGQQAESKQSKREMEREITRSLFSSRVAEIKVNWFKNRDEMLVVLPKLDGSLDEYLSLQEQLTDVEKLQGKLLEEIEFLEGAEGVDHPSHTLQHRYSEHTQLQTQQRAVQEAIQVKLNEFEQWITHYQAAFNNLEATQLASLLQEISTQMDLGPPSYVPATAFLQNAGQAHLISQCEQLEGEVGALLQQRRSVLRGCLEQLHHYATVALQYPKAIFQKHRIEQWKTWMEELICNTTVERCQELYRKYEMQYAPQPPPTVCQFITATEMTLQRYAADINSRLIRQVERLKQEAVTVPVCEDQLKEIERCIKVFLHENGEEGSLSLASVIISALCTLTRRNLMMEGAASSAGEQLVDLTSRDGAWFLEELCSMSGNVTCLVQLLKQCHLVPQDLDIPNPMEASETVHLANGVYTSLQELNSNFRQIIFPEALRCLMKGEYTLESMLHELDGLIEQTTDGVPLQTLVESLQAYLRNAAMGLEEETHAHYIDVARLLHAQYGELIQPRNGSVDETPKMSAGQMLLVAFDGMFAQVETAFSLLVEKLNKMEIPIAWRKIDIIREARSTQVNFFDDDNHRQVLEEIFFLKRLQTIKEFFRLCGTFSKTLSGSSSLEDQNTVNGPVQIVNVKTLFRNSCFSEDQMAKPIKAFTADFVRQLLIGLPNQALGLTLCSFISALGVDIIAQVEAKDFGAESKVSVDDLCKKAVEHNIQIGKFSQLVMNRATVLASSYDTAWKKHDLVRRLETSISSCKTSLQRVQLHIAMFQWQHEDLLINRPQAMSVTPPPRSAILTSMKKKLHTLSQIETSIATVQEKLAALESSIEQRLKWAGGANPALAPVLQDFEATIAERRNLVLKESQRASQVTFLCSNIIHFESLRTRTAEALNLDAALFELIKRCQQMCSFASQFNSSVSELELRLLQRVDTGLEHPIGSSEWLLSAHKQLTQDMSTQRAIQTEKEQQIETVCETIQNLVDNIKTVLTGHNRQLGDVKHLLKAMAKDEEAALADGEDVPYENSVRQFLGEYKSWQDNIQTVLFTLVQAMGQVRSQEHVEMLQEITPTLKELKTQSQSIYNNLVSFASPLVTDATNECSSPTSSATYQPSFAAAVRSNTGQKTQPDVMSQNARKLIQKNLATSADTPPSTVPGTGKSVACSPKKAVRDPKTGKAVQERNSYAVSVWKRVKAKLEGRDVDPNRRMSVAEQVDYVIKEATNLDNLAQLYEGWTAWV

Columns and labels:
[1] = molecular target: T1, T7-DHX34 full-length (human) (UniProt Q14147); assay: co-IP; T7-DHX34 constructs expressed in HEK293T (with or without shRNA depletion of endogenous DHX34); lysate with RNase A; anti-T7 agarose; blot for endogenous SMG1
T1 sequence: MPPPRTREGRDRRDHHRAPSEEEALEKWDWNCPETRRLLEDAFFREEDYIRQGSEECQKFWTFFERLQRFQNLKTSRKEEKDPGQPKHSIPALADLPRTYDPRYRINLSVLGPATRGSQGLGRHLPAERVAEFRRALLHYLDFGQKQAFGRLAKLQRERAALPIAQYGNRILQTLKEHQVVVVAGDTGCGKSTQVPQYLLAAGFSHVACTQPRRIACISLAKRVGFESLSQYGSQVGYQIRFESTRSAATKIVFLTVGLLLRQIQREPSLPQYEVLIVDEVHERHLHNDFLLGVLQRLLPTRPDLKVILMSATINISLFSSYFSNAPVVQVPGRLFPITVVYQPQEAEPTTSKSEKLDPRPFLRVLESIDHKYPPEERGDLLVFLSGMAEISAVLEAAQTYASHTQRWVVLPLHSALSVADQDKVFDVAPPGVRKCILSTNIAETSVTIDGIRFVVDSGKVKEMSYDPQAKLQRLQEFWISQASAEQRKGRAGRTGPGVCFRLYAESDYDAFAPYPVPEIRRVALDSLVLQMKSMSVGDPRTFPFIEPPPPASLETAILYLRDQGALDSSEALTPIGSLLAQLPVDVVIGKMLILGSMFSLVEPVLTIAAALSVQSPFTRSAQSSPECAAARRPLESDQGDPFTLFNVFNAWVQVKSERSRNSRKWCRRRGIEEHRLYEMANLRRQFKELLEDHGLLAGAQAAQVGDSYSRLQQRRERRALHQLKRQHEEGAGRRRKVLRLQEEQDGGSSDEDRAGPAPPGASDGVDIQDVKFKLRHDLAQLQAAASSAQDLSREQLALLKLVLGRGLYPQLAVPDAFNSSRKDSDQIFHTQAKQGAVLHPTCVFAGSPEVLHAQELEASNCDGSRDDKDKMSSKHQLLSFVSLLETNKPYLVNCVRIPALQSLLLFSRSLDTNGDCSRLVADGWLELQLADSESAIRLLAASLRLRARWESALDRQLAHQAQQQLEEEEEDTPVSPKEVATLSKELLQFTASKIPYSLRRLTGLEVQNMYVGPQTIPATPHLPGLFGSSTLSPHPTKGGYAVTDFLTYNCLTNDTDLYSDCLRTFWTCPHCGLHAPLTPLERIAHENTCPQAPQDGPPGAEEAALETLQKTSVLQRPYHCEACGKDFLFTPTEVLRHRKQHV

[2] = molecular target: T1, T7-DHX34 full-length (human); assay: co-IP; sequential: 3XFLAG-UPF1 (wild-type or C126S) with T7-DHX34 or T7-YFP in HEK293T; anti-FLAG IP, FLAG peptide elution, then anti-T7 agarose IP; blot for endogenous SMG1
[3] = molecular target: T2, 3XFLAG-UPF1 C126S (pCDNA3-3XFLAG-UPF1 C126S mutant) (UniProt Q92900); assay: as above
T2 sequence: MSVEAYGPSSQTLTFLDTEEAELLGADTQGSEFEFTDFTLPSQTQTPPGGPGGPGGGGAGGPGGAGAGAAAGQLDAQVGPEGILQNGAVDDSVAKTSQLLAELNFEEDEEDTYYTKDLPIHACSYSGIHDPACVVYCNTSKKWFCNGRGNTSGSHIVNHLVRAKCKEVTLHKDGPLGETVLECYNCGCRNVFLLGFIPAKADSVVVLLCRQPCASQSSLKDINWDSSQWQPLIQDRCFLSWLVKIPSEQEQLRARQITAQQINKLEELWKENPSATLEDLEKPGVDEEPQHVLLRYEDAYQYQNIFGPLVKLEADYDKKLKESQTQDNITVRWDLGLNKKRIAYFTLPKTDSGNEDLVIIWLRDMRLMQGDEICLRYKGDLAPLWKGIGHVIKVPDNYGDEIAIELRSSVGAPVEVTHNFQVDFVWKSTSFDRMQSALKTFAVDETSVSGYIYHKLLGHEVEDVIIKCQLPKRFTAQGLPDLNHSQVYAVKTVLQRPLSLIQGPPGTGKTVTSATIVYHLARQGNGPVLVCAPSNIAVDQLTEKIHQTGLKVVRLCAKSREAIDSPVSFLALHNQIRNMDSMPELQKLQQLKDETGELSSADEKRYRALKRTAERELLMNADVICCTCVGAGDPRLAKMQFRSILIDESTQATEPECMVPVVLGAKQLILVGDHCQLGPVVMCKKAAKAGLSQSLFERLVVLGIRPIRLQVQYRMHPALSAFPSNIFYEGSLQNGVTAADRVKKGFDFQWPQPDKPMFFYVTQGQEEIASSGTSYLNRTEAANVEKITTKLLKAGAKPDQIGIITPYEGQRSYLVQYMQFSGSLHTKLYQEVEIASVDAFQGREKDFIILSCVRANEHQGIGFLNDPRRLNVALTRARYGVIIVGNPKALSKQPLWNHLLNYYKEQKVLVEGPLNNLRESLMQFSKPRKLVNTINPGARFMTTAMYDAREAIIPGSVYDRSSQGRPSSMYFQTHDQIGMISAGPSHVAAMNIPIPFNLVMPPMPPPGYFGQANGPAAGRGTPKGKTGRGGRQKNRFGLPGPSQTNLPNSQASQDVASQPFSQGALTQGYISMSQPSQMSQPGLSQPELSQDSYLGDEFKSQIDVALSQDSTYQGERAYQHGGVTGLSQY

[4] = molecular target: T3, 3XFLAG-UPF1 wild-type (pCDNA3-3XFLAG-UPF1) (UniProt Q92900); assay: as above
T3 sequence: T2 sequence with S126C

Measured: binding

endogenous SMG1 (from UniProt Q96Q15 1-3661) (enzyme)
binds: all assays above
